In PubChem BioAssay AID2517 (National Center for Advancing Translational Sciences (NCATS), 2010):
Values joined by “and” are separate entries in the source; they are usually repeats but may differ in a detail not shown here. Equal values may be shown once. Screen size: about 350,000 compounds; about 1,200 (0.34%) were called active. Inconclusive means that the source gave no clear call. Such entries were picked first, then a sample of the others. The call rests on the fitted dose curve; in most records, active means well fitted inhibition curve with a large enough effect; inconclusive means small, poorly fitted or top-dose-only effect; inactive means no such curve, though single readings can be large or run the other way. Where the call is inconclusive, the potency comes from a doubtful curve fit.

The chains behind the UniProt entries cited, without tags or fusion partners.
UniProt P27695, whole entry, looked up: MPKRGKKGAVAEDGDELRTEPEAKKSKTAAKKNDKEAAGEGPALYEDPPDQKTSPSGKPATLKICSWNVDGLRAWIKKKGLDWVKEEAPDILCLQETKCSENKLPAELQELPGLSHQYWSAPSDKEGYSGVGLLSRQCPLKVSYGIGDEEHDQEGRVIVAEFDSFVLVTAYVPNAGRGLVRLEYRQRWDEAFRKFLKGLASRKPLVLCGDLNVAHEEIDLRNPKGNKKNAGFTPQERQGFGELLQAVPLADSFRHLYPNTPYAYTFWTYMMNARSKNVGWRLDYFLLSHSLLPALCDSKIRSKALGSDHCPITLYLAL

Each compound was assayed against DNA repair nuclease/redox regulator APEX1 (Homo sapiens) (UniProt P27695) (assay: qHTS Assay for Inhibitors of the Human Apurinic/apyrimidinic Endonuclease 1 (APE1)). Conditions: recombinant APE1, TAMRA/BHQ-2 abasic DNA cleavage fluorescence; series mostly up to 65.8 µM.
Outline: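 Enzyme (0.75 nM final) and test compound are incubated 15 min at room temperature before adding 50 nM quenched THF abasic-site duplex. Cleavage dequenches TAMRA, followed at 525/598 nm over three reads one minute apart.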
Further: nearly all actives have a fitted effect of over 55% in size.
Potency means the concentration at half of the fitted maximal effect.

| Compound | Potency |
| --- | --- |
| CC(C)(C)c1ccc(NS(=O)(=O)c2ccc(N)cc2)cc1 | inconclusive: 39.8 µM [inhibitor, single point] |
| Cc1cc(C(=O)NCc2cc(C(=O)O)co2)co1 | inactive |
| Cc1nn(C)cc1/C=C1\SC(=S)NC1=O | inconclusive: 3.55 µM [inhibitor, single point] |
| CCC(CC)NC(=O)C1CCN(S(=O)(=O)c2cccs2)CC1 | inconclusive: 3.55 µM [inhibitor, partial curve, poor fit] |
| CC(C)(CNC(=O)c1cc(-c2ccc(Cl)s2)nc2ccccc12)N1CCOCC1 | inconclusive: 8.44 µM [inhibitor, single point] |
| CN(C)S(=O)(=O)N(CC(=O)NCCSCc1ccccc1)c1ccccc1 | inconclusive: 25.1 µM [inhibitor, partial curve] |
| COc1ccc(OC2C(O)COC2/C=C/C#Cc2ccccc2)cc1 (stereo not given) | inconclusive: 3.98 µM [inhibitor, single point] |
| CO[C@@H]1COC(=O)[C@H]2CCCN2C(=O)[C@@H](C)COC(=O)C/C=C\[C@H]1C | inconclusive: 4.47 µM [inhibitor, single point] |
| COc1ccc(NC(=O)C(C)N2C(=O)c3ccccc3C2=O)cc1S(=O)(=O)N1CCOCC1 (stereo not given) | inconclusive: 0.224 µM [inhibitor, full curve, poor fit] |
| CCC1(CC)NC(=O)N(CC(=O)N2N=C(c3ccc(Cl)cc3)CC2c2ccco2)C1=O (stereo not given) | inconclusive: 20 µM [inhibitor, single point] |
| Cn1cccc1C(=O)N1CCC2(CC1)CN(c1cccc(-c3ccccc3)c1)C2 | inactive |
| N=c1sccn1CC(=O)Nc1ccc([N+](=O)[O-])cc1Cl | inconclusive: 0.0355 µM [inhibitor, full curve, poor fit] |
| O=C(Cc1cscn1)c1ccc(O)cc1O | inconclusive: 28.2 µM [inhibitor, partial curve] |
| Cc1cccc(-n2c(N)cc(=O)nc2SCC(=O)NC2CCCCC2)c1 | inconclusive: 0.0035 µM [inhibitor, full curve, poor fit] |
| O=C(N/N=C/c1cccc(NC(=O)c2ccc(Cl)cc2)c1)c1ccc(O)cc1 | inconclusive: 20 µM [inhibitor, single point] |
| O=c1c2c3c(sc2[nH]c(=S)n1Cc1ccco1)CCC3 | inconclusive: 39.8 µM [inhibitor, partial curve, poor fit] |
| CCCC[C@@H]1C[C@H]1C(NC(=O)c1cccs1)c1ccc(Cl)cc1 (stereo not given in full) | inconclusive: 0.0447 µM [inhibitor, single point] |
| O=C(CSCc1ccccc1)NNC(=S)Nc1cccc(Cl)c1Cl | inconclusive: 44.7 µM [inhibitor, single point] |
| Cc1ccc(NC(=O)Cn2ccsc2=N)c([N+](=O)[O-])c1 | inconclusive: 0.224 µM [inhibitor, full curve, poor fit] |
| COc1cc([N+](=O)[O-])cc(/C=N/NC(=O)Cn2nccc2C)c1O | inactive |
| O=C1CC(C(=O)Nc2ccc(O)c(C(=O)O)c2)C(c2ccccc2)O1 (stereo not given) | inactive |
| COCCNC(=O)CSc1ccc(C)cc1 | inconclusive: 5.01 µM [inhibitor, partial curve] |

As entered above.
Value for O=c1c2c3c(sc2[nH]c(=S)n1Cc1ccco1)CCC3 under Potency: inconclusive: 39.8 µM [inhibitor, partial curve, poor fit]
Value for CCC(CC)NC(=O)C1CCN(S(=O)(=O)c2cccs2)CC1 under Potency: inconclusive: 3.55 µM [inhibitor, partial curve, poor fit]
Value for COc1cc([N+](=O)[O-])cc(/C=N/NC(=O)Cn2nccc2C)c1O under Potency: inactive

Following part.

| Compound | Potency |
| --- | --- |
| Cc1ccc(S(=O)(=O)N2CCC(=O)N(C(CO)C(C)C)CC2)cc1 (stereo not given) | inconclusive: 3.16 µM [inhibitor, single point] |
| O=C(NC(=S)Nc1ccc(S(=O)(=O)Nc2nccs2)cc1)C1CC1 | inconclusive: 28.2 µM [inhibitor, single point] |
| COc1ccc(C(CC(=O)N2CCN(c3ccccc3)CC2)c2c(OC)cc(OC)c3c(-c4ccccc4)cc(=O)oc23)cc1 (stereo not given) | inconclusive: 15.8 µM [inhibitor, partial curve] |
| C=CCn1c(C)cc(C(=O)Cn2ncc(Cl)c(Cl)c2=O)c1C | inconclusive: 15.8 µM [inhibitor, partial curve] |
| CCN(CC)c1ccc(NS(=O)(=O)c2ccc3c(c2)oc(=O)n3C)c(C)c1 | inconclusive: 25.1 µM [inhibitor, partial curve] |
| Cc1ccc2[nH]c(=O)c(-c3nc4cc(C)ccn4c3NCc3ccco3)cc2c1 | inactive |
| COc1ccc(Nc2nnc(SCc3cc(=O)n4ccsc4n3)s2)cc1 | inconclusive: 39.8 µM [inhibitor, single point] |
| Clc1ccc(-c2nnc(N3CCOCC3)o2)cc1 | inactive |
| COc1ccc(C2c3c(-c4ccccc4O)n[nH]c3C(=O)N2CCc2ccc(OC)c(OC)c2)cc1 (stereo not given) | inconclusive: 44.7 µM [inhibitor, partial curve, poor fit] |
| CCCOc1ccc(/C=N/NC(=O)c2ccc(Cn3cc([N+](=O)[O-])cn3)o2)cc1 | inactive |
| Fc1ccc(Nc2ccc3ccccc3n2)c(F)c1 | inactive |
| CCCCN(CCO)CCCC | inactive |
| O=C(Oc1ccc(N(C(=O)c2ccncc2)S(=O)(=O)c2ccc(Cl)cc2)cc1)c1ccncc1 | inactive |
| CCCn1nnc(NC(=O)c2ccc3c(c2)OCO3)n1 | inconclusive: 3.55 µM [inhibitor, single point] |
| Cn1nc(-c2ccccc2)cc1NS(=O)(=O)c1ccc(C#N)cc1 | inconclusive: 3.98 µM [inhibitor, full curve, poor fit] |
| FC(F)(F)c1cccc(NC(=S)NCc2ccccn2)c1 | inconclusive: 0.794 µM [inhibitor, full curve, poor fit] |
| CC(C)(C)OC(=O)N1CCC(NC(=O)c2[nH]cnc2C(=O)N[C@@H](Cc2ccccc2)C(=O)OCc2ccccc2)CC1 | inconclusive: 12.6 µM [inhibitor, partial curve] |
| Cc1ccc(SCCNC(=O)c2ccc(C)c(S(=O)(=O)Nc3cccc(C)c3)c2)cc1 | inconclusive: 25.1 µM [inhibitor, partial curve, poor fit] |
| O=Nc1c(-c2c(O)[nH]c3ccccc23)[nH]c2ccccc12 | inconclusive: 35.5 µM [inhibitor, single point] and inconclusive: 20 µM [inhibitor, partial curve] |
| CCOc1cc(/C=C2\SC(=S)N(NC(=O)c3cccnc3)C2=O)ccc1O | inconclusive: 25.1 µM [inhibitor, single point] |
| COc1ccc(NC(=O)c2cc3c(=O)n(C)c4ccccc4c3n2C)cc1OC | inconclusive: 17.8 µM [inhibitor, single point] |
| COC(=O)CCCC1=CC2=CC(=O)C(C)(OC(=O)C3CCCC3)C(=O)C2=CO1 (stereo not given) | inactive |

| Compound | Potency |
| --- | --- |
| O=C(CN1C(=O)c2ccccc2C1=O)NCc1ccc(N2CCOCC2)cc1 | inconclusive: 0.0028 µM [inhibitor, full curve, poor fit] |
| CSc1cc(-c2ccc(Cl)cc2)[nH]c(=O)c1C#N | inactive |
| CCC(=O)Nc1ccc(C(=O)CSc2nnc(-c3cccnc3)o2)cc1 | inconclusive: 39.8 µM [inhibitor, partial curve, poor fit] |
| COC(=O)C(C)NS(=O)(=O)c1ccc(NC(C)=O)cc1 (stereo not given) | inconclusive: 44.7 µM [inhibitor, single point] |
| Cc1ccc(-c2nc(CSCC(=O)NCCCN3CCOCC3)c(C)o2)cc1 | inconclusive: 0.199 µM [inhibitor, full curve] |
| CN(C)S(=O)(=O)c1cccc(C(=O)NCC2(N3CCOCC3)CCCCC2)c1 | inactive |
| N#C/C(=N/Nc1ccc(OC(F)(F)F)cc1)C(N)=S | inactive |
| CC(=O)OC[C@@H]1O[C@@H](O/N=C2/C[C@@H](O)[C@@H](O)[C@@H]3[C@@H]4C(=O)N(C(C)(C)C)C(=O)[C@H]4CC[C@H]23)[C@H](OC(C)=O)[C@H](OC(C)=O)[C@@H]1OC(C)=O | inconclusive: 7.94 µM [inhibitor, single point] |
| COC(=O)C1=C(N)Oc2c(oc(CO)cc2=O)C1c1ccc(F)cc1 (stereo not given) | inconclusive: 3.16 µM [inhibitor, single point] |
| CCc1nc2ccccc2c(C(=O)NCc2ccccc2)c1C | inconclusive: 44.7 µM [inhibitor, single point] |
| Cc1nc(NS(=O)(=O)c2cccs2)c2c3c(sc2n1)CCC3 | inconclusive: 44.7 µM [inhibitor, single point] |
| Cc1nc2ccccn2c1C(=O)N/N=C/c1ccc([N+](=O)[O-])o1 | inactive |
| COc1ccccc1C(C)NCC(=O)NC(=O)NCc1ccco1 (stereo not given) | inactive |
| COc1ccc2[nH]c3c(C)c4ccncc4c(C)c3c2c1 | active: 7.94 µM |
| Cc1c(Cl)cnc(NC(=O)COC(=O)c2ccc([N+](=O)[O-])s2)c1Cl | inconclusive: 31.6 µM [inhibitor, single point] |
| N#Cc1c(/N=C/c2ccc(-c3ccccc3C(=O)O)o2)sc2c1CCCC2 | inconclusive: 26.7 µM [inhibitor, partial curve, poor fit] |
| CCN(CC)S(=O)(=O)c1ccc(C(=O)NNc2nc(-c3ccccc3)c3cc(Br)ccc3n2)cc1 | inconclusive: 11.2 µM [inhibitor, partial curve, poor fit] |
| COc1ccc2c(c1)C(=O)[C@@H](O)[C@H](c1ccc(OC)c(Br)c1)O2 | inconclusive: 0.0794 µM [inhibitor, full curve, poor fit] |
| O=C1/C(=C/c2ccc(O)c([N+](=O)[O-])c2)SC(=S)N1Cc1ccccc1 | inconclusive: 8.91 µM [inhibitor, single point] |
| Cc1ccc(-c2csc3nc4c5ccccc5c(NCCCN(C)C)nn4c(=O)c23)cc1 | inactive |
| CN(C)c1ncnc2ccc(-c3cccc(C#N)c3)cc12 | inactive |
